Structures can show the parent of a compound that is named as a salt. Some of the results follow. Many values rest on one well or one pass, so single values are uncertain.
How the values were obtained:
A2780 = assay: cell growth inhibition ratio vs untreated control (CCK8); higher = stronger inhibition of cell viability; details: 10 µM; 48 h
Protocol: (§1)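 Natural product library (Topscience) screened at 10 µM final concentration for 48 h on ovarian cancer A2780 cells and patient-derived ovarian cancer cells (PDC) in 96-well plates; viability read by CCK8 and reported as inhibition ratio (%) relative to untreated control. Single-dose primary screen.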

[1] = test system: patient-derived ovarian cancer cells (PDC); assay: as above; details: 10 µM; 48 h
Protocol: as §1

| SMILES | cell growth inhibition ratio (A2780) [%] | cell growth inhibition ratio [1] [%] |
| --- | --- | --- |
| C=C1CC[C@H]2C(=C)CC[C@H]3C(=C)C(=O)O[C@@H]3[C@@H]12 [Dehydrocostus Lactone] | 61.6 | 33.8 |
| N[C@@H](Cc1c[nH]c2ccccc12)C(=O)O [L-Tryptophan] | 12.2 | 7.42 |
| COC(=O)[C@@]1(C)CC[C@]2(C(=O)O)CC[C@]3(C)C(=CC[C@@H]4[C@@]5(C)C[C@H](O)[C@H](O[C@@H]6OC[C@@H](O[C@@H]7O[C@H](CO)[C@@H](O)[C@H](O)[C@H]7O)[C@H](O)[C@H]6O)[C@@](C)(CO)[C@@H]5CC[C@]43C)[C@@H]2C1 [Esculentoside A] | 19.3 | 3.72 |
| CC1(C)CCC[C@](C)([C@H]2CC[C@]3(C)[C@@H]2[C@H](O)C[C@@H]2[C@@]4(C)CC[C@H](O)C(C)(C)[C@@H]4[C@H](O)C[C@]23C)O1 [Panaxtriol] | 1.19 | -4.4 |
| C[C@H](CCC(=O)O)[C@H]1CC[C@H]2[C@@H]3[C@H](O)C[C@@H]4C[C@H](O)CC[C@]4(C)[C@H]3CC[C@]12C [Chenodeoxycholic acid] | 9.13 | 11.4 |
| CC(/C=C/C=C(\C)C(=O)O[C@@H]1O[C@H](CO)[C@@H](O)[C@H](O)[C@H]1O)=C\C=C\C=C(C)\C=C\C=C(/C)C(=O)O[C@@H]1O[C@H](CO[C@@H]2O[C@H](CO)[C@@H](O)[C@H](O)[C@H]2O)[C@@H](O)[C@H](O)[C@H]1O [Crocin II] | -18.7 | -3.84 |
| O[C@H]1[C@H]2c3cc4c(cc3CN3CCC(=C[C@@H]1O)[C@H]23)OCO4 [Lycorine] | 77.3 | 69.8 |
| N[C@@H](Cc1cc(I)c(Oc2ccc(O)c(I)c2)c(I)c1)C(=O)O [Lyothyronine] | -1.86 | -5.39 |
| OC[C@H]1O[C@@H](Oc2cc(O)cc(/C=C/c3ccc(O)cc3)c2)[C@H](O)[C@@H](O)[C@@H]1O [Polydatin] | 18.2 | 5.17 |
| CC1(C)[C@@H](O[C@H]2O[C@H](C(=O)O)[C@@H](O)[C@H](O)[C@H]2O[C@@H]2O[C@H](C(=O)O)[C@@H](O)[C@H](O)[C@H]2O)CC[C@]2(C)[C@H]3C(=O)C=C4[C@@H]5C[C@@](C)(C(=O)O)CC[C@]5(C)CC[C@@]4(C)[C@]3(C)CC[C@@H]12 [Glycyrrhizin (Glycyrrhizic Acid)] | 0.558 | 4.31 |
| OC[C@H]1NC[C@H](O)[C@@H](O)[C@@H]1O [1-Deoxynojirimycin] | 6.4 | -1.22 |
| COC(=O)c1cc(OC)c(O)c(OC)c1 [Methyl syringate] | 11.7 | 1.93 |
| CNc1ncnc2c1ncn2[C@@H]1O[C@H](CO)[C@@H](O)[C@H]1O [N6-methyladenosine (m6A)] | 19.4 | -18.7 |
| O=c1[nH]cnc2c1ncn2[C@H]1C[C@H](O)[C@@H](CO)O1 [2'-Deoxyinosine] | -2.56 | 21.6 |
| COC(=O)C1=CO[C@@H](O[C@@H]2O[C@H](CO)[C@@H](O)[C@H](O)[C@H]2O)[C@H]2[C@@H]1[C@H](O)C[C@]2(C)O | 9.42 | -21 |
| N[C@@H](C=O)[C@@H](O)[C@H](O)[C@H](O)CO [Glucosamine hydrochloride] | 4.38 | 2.28 |
| COc1ccc(-c2cc(=O)c3c(O)c(OC)c(O)c(OC)c3o2)cc1 [Lysionotin] | 61.4 | 3.57 |
| CC1CCCCCCCCCCCCC(=O)C1 (stereo unspecified) [Muscone] | 21.6 | 5.37 |
| Cc1ncc(CO)c(CO)c1O [Pyridoxine] | 2.73 | -6.15 |
| Cc1ncc(C[n+]2csc(CCO)c2C)c(N)n1 [Thiamine hydrochloride] | -6 | 1.99 |
| C[C@@H]1O[C@@H](O[C@H]2[C@H](OC(=O)[C@]34CCC(C)(C)C[C@H]3C3=CC[C@@H]5[C@@]6(C)C[C@H](O)[C@H](O[C@@H]7O[C@H](CO)[C@@H](O)[C@H](O)[C@H]7O)C(CO)(CO)[C@@H]6CC[C@@]5(C)[C@]3(C)C[C@H]4O)OC[C@H](O)[C@@H]2O)[C@H](O)[C@H](O)[C@H]1O[C@@H]1OC[C@@H](O)[C@H](O[C@@H]2OC[C@](O)(CO)[C@H]2O)[C@H]1O [Platycodin D] | 39.1 | 9.11 |
| O=C1c2c(O)cccc2C([C@@H]2O[C@H](CO)[C@@H](O)[C@H](O)[C@H]2O)c2cc(CO)cc(O)c21 (stereo partly specified) [Aloin] | 5.67 | -3.59 |
| CC(C)=CCc1cc2c(cc1O)O[C@H](c1ccc(O)cc1)CC2=O [Bavachin] | 2.65 | 14.3 |
| CCCCCCCCCCCCCCCCCCCCCCCCCCCCCCO [Triacontanol] | 7.86 | 10.4 |

| SMILES | cell growth inhibition ratio (A2780) [%] | cell growth inhibition ratio [1] [%] |
| --- | --- | --- |
| COC(=O)CC[C@@H](C)[C@H]1CC[C@H]2[C@@H]3[C@H](O)C[C@@H]4C[C@H](O)CC[C@]4(C)[C@H]3C[C@H](O)[C@]12C [Methyl Cholate] | 12.9 | -7.83 |
| C[C@@H]1CC[C@]2(C(=O)O[C@@H]3O[C@H](CO)[C@@H](O)[C@H](O)[C@H]3O)CC[C@]3(C)C(=CC[C@@H]4[C@@]5(C)CC[C@H](O)[C@@](C)(CO)[C@@H]5CC[C@]43C)[C@@H]2[C@]1(C)O [Pedunculoside] | 1.05 | 22.3 |
| COc1ccccc1O [Guaiacol] | 12.5 | 0.712 |
| O=C(O)c1cc(O)c2c(c1)[C@H]([C@H]1c3cc(C(=O)O)cc(O)c3C(=O)c3c(O[C@@H]4O[C@H](CO)[C@@H](O)[C@H](O)[C@H]4O)cccc31)c1cccc(O[C@@H]3O[C@H](CO)[C@@H](O)[C@H](O)[C@H]3O)c1C2=O [Sennoside A] | -3.96 | -10.9 |
| CC(C)=CCCC(C)CCO (stereo unspecified) [Citronellol] | 15.4 | 15.3 |
| Cc1cc2nc3c(=O)[nH]c(=O)nc-3n(C[C@H](O)[C@H](O)[C@H](O)CO)c2cc1C [Riboflavin] | 11.5 | -16.5 |
| Cc1coc2c1C(=O)C(=O)c1c-2ccc2c1CCCC2(C)C [Tanshinone IIA] | 87.8 | 15.2 |
| C=C[C@H]1CN2CC[C@H]1C[C@@H]2[C@@H](O)c1ccnc2ccc(OC)cc12 [Quinidine hydrochloride] | 1.8 | 5.09 |
| CN1c2ccccc2C(=O)N2CCc3c([nH]c4ccccc34)C21 (stereo in doubt) [Evodiamine] | 70.1 | 14.1 |
| Cc1cccc2c3c(ccc12)C1=C(C(=O)C3=O)[C@@H](C)CO1 [Dihydrotanshinone I] | 93.6 | 83.3 |
| C[C@H]1[C@H](C)CC[C@]2(C(=O)O)CC[C@]3(C)C(=CC[C@@H]4[C@@]5(C)CCC(=O)C(C)(C)[C@@H]5CC[C@]43C)[C@H]12 [Ursonic Acid] | 44.3 | 5.62 |
| C[C@H](CCC(=O)O)[C@H]1CC[C@H]2[C@@H]3C[C@H](O)[C@@H]4C[C@H](O)CC[C@]4(C)[C@H]3CC[C@]12C [Hyodeoxycholic acid (HDCA)] | 4.8 | 6.37 |
| C=C(C)[C@@H]1CC[C@]2(C(=O)O)CC[C@]3(C)[C@H](CC[C@@H]4[C@@]5(C)CC[C@H](O[C@@H]6OC[C@H](O)[C@H](O)[C@H]6O[C@@H]6O[C@@H](C)[C@H](O)[C@@H](O)[C@H]6O)[C@@](C)(CO)[C@@H]5CC[C@]43C)[C@@H]12 [Anemoside A3] | -3.63 | 9.66 |
| O=c1cc(-c2ccccc2)oc2ccc(O)cc12 [6-Hydroxyflavone] | -5.23 | -20 |
| C[C@@H]1O[C@@H](Oc2c(-c3ccc(O)c(O)c3)oc3cc(O)cc(O)c3c2=O)[C@H](O)[C@H](O)[C@H]1O [Quercitrin] | -2.72 | 6.32 |
| CC(=O)[C@@]1(O)CC[C@H]2[C@@H]3CCC4=CC(=O)CC[C@]4(C)[C@H]3CC[C@@]21C [Hydroxyprogesterone] | 10.6 | -12.8 |
| C[C@@H]1CC[C@@]2(OC1)O[C@H]1C[C@H]3[C@@H]4CC=C5C[C@@H](O[C@@H]6O[C@H](CO)[C@@H](O[C@@H]7O[C@@H](CO)[C@H](O)[C@H]7O)[C@H](O)[C@H]6O[C@@H]6O[C@@H](C)[C@H](O)[C@@H](O)[C@H]6O)CC[C@]5(C)[C@H]4CC[C@]3(C)[C@H]1[C@@H]2C | 93.3 | 91.3 |
| C/C=C1\C(CC(=O)OC[C@H]2O[C@@H](OCCc3ccc(O)cc3)[C@H](O)[C@@H](O)[C@@H]2O)C(C(=O)OC)=CO[C@H]1O[C@@H]1O[C@H](CO)[C@@H](O)[C@H](O)[C@H]1O (stereo partly specified) [Nuezhenide] | 3.38 | 3.46 |
| C[C@@H]1O[C@H]2O[C@H]3[C@@H](OC[C@H](O)[C@@H]3O)OC(=O)[C@]34CCC(C)(C)C[C@H]3C3=CC[C@H]5[C@@]6(C)C[C@H](O)[C@H](O[C@@H]7O[C@H](CO)[C@@H](O)[C@H](O)[C@H]7O[C@@H]7OC[C@H](OC(=O)C[C@](C)(O)CC(=O)O[C@@H]1[C@@H](O[C@@H]1OC[C@@H](O)[C@H](O)[C@H]1O)[C@H]2O)[C@H](O)[C@H]7O)[C@@](C)(CO)[C@@H]6CC[C@@]5(C)[C@]3(C)CC4 [Tubeimoside I] | 78.2 | 56.2 |
| COc1cc2c(cc1OC)[C@@H]1Cc3ccc(OC)c(OC)c3CN1CC2 [Rotundine, TETRAHYDROPALMATINE HYDROCHLORIDE] | 13.1 | -6.48 |
| CC(=O)O[C@]1(C)CC[C@@]23C[C@H]1C(C)(C)[C@@H]2CC[C@H]3C [Cedryl acetate] | 5.94 | 5.47 |
| OC[C@@H](O)[C@@H](O)[C@@H](O)[C@@H](O)CO [Allitol] | 4.92 | -13.3 |
| O=C(O)C=CC=Cc1ccccc1 [5-Phenyl-2,4-pentadienoic acid] | 5.02 | -5.68 |
| O=C(O[C@@H]1O[C@@H]2COC(=O)c3cc(O)c(O)c(O)c3-c3c(cc(O)c(O)c3O)C(=O)O[C@H]([C@H]1O)[C@@H]2O)c1cc(O)c(O)c(O)c1 [Corilagin] | 9.5 | 3.77 |

Taken from above.
cell growth inhibition ratio [1] [%], O=C(O[C@@H]1O[C@@H]2COC(=O)c3cc(O)c(O)c(O)c3-c3c(cc(O)c(O)c3O)C(=O)O[C@H]([C@H]1O)[C@@H]2O)c1cc(O)c(O)c(O)c1 [Corilagin] is entered as 3.77
cell growth inhibition ratio (A2780) [%], CC(=O)O[C@]1(C)CC[C@@]23C[C@H]1C(C)(C)[C@@H]2CC[C@H]3C [Cedryl acetate] is entered as 5.94

Reference: the supplement of paper PMC10373366
